PubChem BioAssay AID1224826 | NIAID | 2016
The whole screen tested about 17,000 reagents; this is an unselected part. Of all reagents, about 1,110 (6.6%) got an active call. 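Active means lowered or raised reporter signal; replicate intensities are raw and not normalised per plate.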 Unmarked entries are inactive. Some reagents were tested in more than one well and are listed for each. Further read-outs or replicates are left out here. Reagent sequences are not shown.

Assay: 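Genes that change LPS-induced Tnf promoter activity in mouse macrophages when knocked down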 (primary screen)
Cells: RAW264.7 G9 macrophages from mouse bearing reporters for p65 (GFP) and the Tnf promoter (mCherry)
Knock-down reagent: siRNA pool against mouse genes, 100 nM
Duration: 16 h of LPS stimulation, after 2 days of siRNA transfection
Conditions: bacterial lipopolysaccharide (Salmonella minnesota R595), 10 ng/ml
Read-out: 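Imaged Tnf reporter mCherry in nuclei, minus background, normalised per plate to the median and expressed as robust z-scores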
Scale: Tnf reporter robust z-score: higher = stronger Tnf promoter reporter signal after LPS
Rule for the call: 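a well counts as active at a score of -1.3 or below (Tlr4 knock-down control median) or above 3 (raised signal); controls and wells holding fewer than 50 cells are excluded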
Calls: active = Tnf reporter clearly lowered or raised; inactive = no clear change in Tnf reporter

gene knocked down | Tnf reporter robust z-score | fewer than 50 cells in well
Vmn1r17 (vomeronasal 1 receptor 17) | 2.44 | enough cells in well
Vmn1r193 (vomeronasal 1 receptor 193) | 1.99 | enough cells in well
Ifnab (interferon alpha B) | -0.6 | enough cells in well
Cr2 (complement receptor 2) | -0.79 | enough cells in well
Spp1 (secreted phosphoprotein 1) | 1.23 | enough cells in well
Pdlim4 (PDZ and LIM domain 4) | -0.52 | enough cells in well
Cdx2 (caudal type homeobox 2) | 0.14 | enough cells in well
Abat (4-aminobutyrate aminotransferase) | 1.09 | enough cells in well
Cstpp1 | 0.27 | enough cells in well
Sord (sorbitol dehydrogenase) | -0.29 | enough cells in well
Eif4a3 (eukaryotic translation initiation factor 4A3) | – | fewer than 50 cells per well; well left out of calls
Dennd5b (DENN domain containing 5B) | 0.1 | enough cells in well
Csdc2 (cold shock domain containing C2, RNA binding) | 0.45 | enough cells in well
Numb (NUMB endocytic adaptor protein) | 0.45 | enough cells in well
Gpx6 (glutathione peroxidase 6) | -0.51 | enough cells in well
Ambra1 (autophagy/beclin 1 regulator 1) | -0.84 | enough cells in well
Sv2a (synaptic vesicle glycoprotein 2a) | -1.32 (active) | enough cells in well
Vmn1r50 (vomeronasal 1 receptor 50) | 0.27 | enough cells in well
Zfp112 (zinc finger protein 112) | – | fewer than 50 cells per well; well left out of calls
Nxnl2 (nucleoredoxin-like 2) | -0.53 | enough cells in well
Spag7 (sperm associated antigen 7) | – | fewer than 50 cells per well; well left out of calls
Hbegf (heparin-binding EGF-like growth factor) | -0.7 | enough cells in well
Soat2 (sterol O-acyltransferase 2) | 0.64 | enough cells in well
Npr2 (natriuretic peptide receptor 2) | 0.55 | enough cells in well
Npr2 (natriuretic peptide receptor 2) | 1.43 | enough cells in well
Kctd8 (potassium channel tetramerisation domain containing 8) | 2.12 | enough cells in well
Spata17 (spermatogenesis associated 17) | – | fewer than 50 cells per well; well left out of calls
Efemp1 | -0.26 | enough cells in well
Or5l13 (olfactory receptor family 5 subfamily L member 13) | 0.43 | enough cells in well
Or2ag2 (olfactory receptor family 2 subfamily AG member 2) | 1.28 | enough cells in well
Rnf141 (ring finger protein 141) | -0.18 | enough cells in well
Srp19 (signal recognition particle 19) | 0.32 | enough cells in well
Ranbp3 (RAN binding protein 3) | 2.67 | enough cells in well
Gm5134 (predicted gene 5134) | 3.68 (active) | enough cells in well
Col18a1 (collagen, type XVIII, alpha 1) | 0.11 | enough cells in well
Ppp2ca | -0.14 | enough cells in well
Cryl1 (crystallin, lambda 1) | -0.25 | enough cells in well
Or6f1 (olfactory receptor family 6 subfamily F member 1) | -1.34 (active) | enough cells in well
Irag1 (inositol 1,4,5-triphosphate receptor associated 1) | -0.2 | enough cells in well
Ptprf (protein tyrosine phosphatase receptor type F) | 0.04 | enough cells in well
